According to the supplement of paper PMC12823440, “Inhibitors supercharge kinase turnover through native proteolytic circuits” (Nature, 2025):
Counter-ions that a name gives are not always drawn. The list shows a part of the results. The calls rarely recur for the same compound in another form.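 In K562 cells expressing nanoluciferase-fused kinases, luminescence was recorded at 4 h intervals between 2 and 18 h, normalized as percent of control with DMSO at 100% and a positive control at 0%. A significant (2 sigma) signal drop marks a time point as decreased. The authors' rule for a hit is not shown and takes in more than the number of time points.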

Amino acid sequences for entries named in this document (tags omitted).
UniProt Q15118, whole entry, looked up: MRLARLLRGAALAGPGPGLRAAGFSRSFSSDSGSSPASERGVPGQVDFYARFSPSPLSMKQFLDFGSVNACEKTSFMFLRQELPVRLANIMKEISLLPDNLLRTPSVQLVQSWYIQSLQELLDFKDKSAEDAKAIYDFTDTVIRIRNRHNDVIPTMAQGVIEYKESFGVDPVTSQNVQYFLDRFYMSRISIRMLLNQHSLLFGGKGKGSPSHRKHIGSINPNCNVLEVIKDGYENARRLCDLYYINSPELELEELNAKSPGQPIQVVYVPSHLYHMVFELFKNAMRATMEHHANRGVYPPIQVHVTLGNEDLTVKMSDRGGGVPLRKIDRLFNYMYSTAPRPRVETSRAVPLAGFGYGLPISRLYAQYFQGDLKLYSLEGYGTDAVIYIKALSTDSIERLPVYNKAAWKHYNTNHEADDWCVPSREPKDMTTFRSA

Molecular target: PDK1 (UniProt Q15118)
Test: kinase-Nluc reporter destabilization hit call (1 = scored as downregulated) (binary); higher = compound decreases kinase abundance
Conditions: K562; 2-18 h

kinase-Nluc reporter destabilization hit call, inactive:
CC(C1CC1)n1cnc2c(NCc3cccc(C(F)(F)F)c3)nc(NCCN(C)C)nc21 (stereo not drawn) (10 µM) 0
COc1cc2nc(NC3CC3)nc(NC3CCN(C(C)C)CC3)c2cc1OC (10 µM) 0
Cc1nn(CC(F)(F)F)cc1Nc1ncc(Br)c(NCc2ccc(S(N)(=O)=O)cc2)n1 (10 µM) 0
N#C/C(=C/c1ccc(O)c(O)c1)C(=O)N1CCc2ccccc21 [Tyrphostin AG 528] (10 µM) 0
Cc1nc2c(NCc3cccc(S(C)(=O)=O)c3)nccn2c1-c1ccc(O)c(F)c1 (10 µM) 0
CN(C)c1cc[n+](Cc2ccc(OCCOc3ccc(C[n+]4ccc(N(C)C)cc4)cc3)cc2)cc1 (10 µM) 0
O=C1CCC(N2C(=O)c3cccc(OCCCCCOc4ccc(CC(=O)Nc5cc(C6CCC6)[nH]n5)cc4)c3C2=O)C(=O)N1 (stereo not drawn) [PROTAC CDK9 Degrader-1] (10 µM) 0
CCOc1cc(=O)[nH]cc1-c1ccc(CC(=O)Nc2cc(C(C)(C)C(F)(F)F)on2)c(F)c1 (10 µM) 0
O=C(O)/C=C(\CCc1ccc(Cl)cc1)c1ccccc1 (10 µM) 0
CCc1c(C(=O)NNC(=O)[C@H](O)c2cc(F)cc(F)c2)ccc(O)c1C (10 µM) 0
O=c1cc(N2CCOCC2)oc2c(-c3cccc4c3sc3ccccc34)cccc12 (10 µM) 0
CN1CCN(c2ccc(-n3cc(-c4ccncc4OCC4CCNCC4)cn3)cc2)CC1 [MELK-8a (hydrochloride)] (10 µM) 0
Cc1ccc(C2CC(=O)NC(SCC(=O)Nc3nccs3)=C2C#N)cc1 (stereo not drawn) [Necrostatin-34] (10 µM) 0
CNc1cc2c(Nc3cccc(Br)c3)ncnc2cn1 (10 µM) 0
Cn1cc(-c2nc(N[C@@H]3CCCC[C@@H]3N)c(F)c3c2C(=O)NC3)cn1 [TAK-659 (hydrochloride)] (2 µM) 0
CC(=O)Nc1nc(C)c(-c2cc(C)c3c(c2)CN([C@@H](C)C2CC2)C3=O)s1 (10 µM) 0
CN(C)c1ccc(/C=C2\C(=O)Nc3ccccc32)c2ccccc12 (10 µM) 0
COc1ccc(-c2cc(=O)c3c(O)cc(O)cc3o2)cc1-c1c(O)cc(O)c2c(=O)cc(-c3ccc(O)cc3)oc12 [Bilobetin] (2.5 µM) 0
O=C(NCc1ccn[nH]1)c1cc([C@@H]2CCNC[C@H]2COc2ccc3c(c2)OCO3)ccc1F [GRK2-IN-1 (hydrochloride)] (10 µM) 0
Nc1ccc(C(=O)Nc2cccc(-c3nc(N4CCOCC4)c4oc5ncccc5c4n3)c2)cn1 (10 µM) 0
CCOC(=O)c1c(C)[nH]c(C=C2C(=O)Nc3ccccc32)c1C (10 µM) 0
CCCS(=O)(=O)N[C@H]1C[C@@H](N(C)c2ncnc3[nH]ccc23)C1 [Abrocitinib] (10 µM) 0
O=[N+]([O-])c1ccc(-c2nc(-c3ccc(F)cc3)c(-c3ccncc3)[nH]2)cc1 (10 µM) 0
O=C(O)c1c[nH]c2cc(Cl)c(-c3ccc(C4(O)CCC4)cc3)cc12 (10 µM) 0
CN1CCC(Nc2nc(Nc3ccc(Oc4ccccc4)cc3)c3c(=O)[nH]cc(Br)c3n2)CC1 (2.5 µM) 0
CO[C@]1(C(=O)N[C@@H](C)c2ccc(-n3cc(F)cn3)nc2)CC[C@H](c2nc(C)cc(Nc3cc(C)[nH]n3)n2)CC1 [Pralsetinib] (10 µM) 0
COc1c(Nc2ncc(Cl)c(N[C@H]3[C@@H](C(N)=O)[C@@H]4C=C[C@H]3C4)n2)ccc2c1CC[C@@H](N1CCOCC1)CC2 (10 µM) 0
CN1CCN(Cc2ccc(-c3cn(C4CCC(O)CC4)c4nc(NCCC5CC5)ncc34)cc2)CC1 (stereo not drawn) (2.5 µM) 0
C[C@@H]1COC(Nc2ccc3ncnc(Nc4ccc(OCc5nccs5)c(Cl)c4)c3c2)=N1 [Varlitinib] (10 µM) 0
CC(C)n1cnc2c(Nc3cccc(Cl)c3)nc(N[C@H]3CCCC[C@@H]3N)nc21 (2.5 µM) 0
Cc1n[nH]c2ncc(C(=O)N3CCC[C@H]3c3ccc(Cl)cc3)cc12 (10 µM) 0
COc1ccc2cc1Oc1ccc(cc1)C[C@H]1c3cc(c(OC)cc3CCN1C)Oc1c(O)c(OC)cc3c1[C@H](C2)N(C)CC3 [Fangchinoline] (2.5 µM) 0
CS[C@@]1(C(=O)Nc2ccc3[nH]nc(-c4ccc(OC(C)C)nc4)c3c2)CCN(CC(=O)N2CC=C(c3ccc(-c4ncn(C)n4)cc3)CC2)C1 (2.5 µM) 0
CC/C(=C(\c1ccccc1)c1ccc(OCCNC)cc1)c1ccccc1 [N-Desmethyltamoxifen (hydrochloride)] (2.5 µM) 0
CNC(=O)CN1CCC(Oc2cc3c(Nc4cccc(Cl)c4F)ncnc3cc2OC)CC1 [Sapitinib] (10 µM) 0
O=CN1CCN(c2ccc(C=C3C(=O)Nc4ccccc43)cc2)CC1 (10 µM) 0
CCCCC(=O)OCC(=O)[C@]1(O)Cc2c(O)c3c(c(O)c2[C@@H](O[C@H]2C[C@H](NC(=O)C(F)(F)F)[C@H](O)[C@H](C)O2)C1)C(=O)c1c(OC)cccc1C3=O [Valrubicin] (10 µM) 0
Fc1ccc(Cl)cc1-c1nc(Nc2ccncc2)c2nccnc2n1 (10 µM) 0

Of the compounds above, these have a CF3 group:
kinase-Nluc reporter destabilization hit call, inactive:
CC(C1CC1)n1cnc2c(NCc3cccc(C(F)(F)F)c3)nc(NCCN(C)C)nc21 (stereo not drawn) (10 µM) 0
Cc1nn(CC(F)(F)F)cc1Nc1ncc(Br)c(NCc2ccc(S(N)(=O)=O)cc2)n1 (10 µM) 0
CCOc1cc(=O)[nH]cc1-c1ccc(CC(=O)Nc2cc(C(C)(C)C(F)(F)F)on2)c(F)c1 (10 µM) 0
CCCCC(=O)OCC(=O)[C@]1(O)Cc2c(O)c3c(c(O)c2[C@@H](O[C@H]2C[C@H](NC(=O)C(F)(F)F)[C@H](O)[C@H](C)O2)C1)C(=O)c1c(OC)cccc1C3=O [Valrubicin] (10 µM) 0
